Data reported in patent publication US20240279202A1 (NURIX THERAPEUTICS, INC., priority 2021, published 2024).

Amino acid sequences for entries named in this document (tags omitted).
UniProt Q08881, whole entry: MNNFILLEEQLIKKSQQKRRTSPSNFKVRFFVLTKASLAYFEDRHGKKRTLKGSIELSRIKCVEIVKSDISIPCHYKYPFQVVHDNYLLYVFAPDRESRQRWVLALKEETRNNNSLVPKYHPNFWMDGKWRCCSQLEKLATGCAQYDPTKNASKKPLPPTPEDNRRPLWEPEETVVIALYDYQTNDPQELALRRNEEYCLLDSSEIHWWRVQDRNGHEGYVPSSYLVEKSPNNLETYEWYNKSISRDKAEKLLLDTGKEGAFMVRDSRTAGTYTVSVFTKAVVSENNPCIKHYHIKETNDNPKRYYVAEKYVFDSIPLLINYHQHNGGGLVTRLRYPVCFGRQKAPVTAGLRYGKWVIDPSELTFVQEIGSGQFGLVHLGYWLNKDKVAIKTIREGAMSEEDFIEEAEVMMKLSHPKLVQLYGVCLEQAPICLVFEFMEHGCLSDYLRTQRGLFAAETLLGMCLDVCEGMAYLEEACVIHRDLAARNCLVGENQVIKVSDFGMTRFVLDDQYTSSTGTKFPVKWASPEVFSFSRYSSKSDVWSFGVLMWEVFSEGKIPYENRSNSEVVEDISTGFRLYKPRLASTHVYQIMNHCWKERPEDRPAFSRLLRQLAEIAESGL

Target: ITK (Homo sapiens, UniProt Q08881)
Assay: ITK degradation HiBiT assay
Conditions: C-terminal HiBiT-tagged Molt4 cells, 4 hrs; for DC50: read-out: HiBiT DC50
Protocol: Itk Degradation Hibit Assay
Compounds provided herein were assayed in vitro with ITK HiBit cell lines. Compound dilution series (11-point, 5 fold dilutions in DMSO, columns 2-12 with replicate in rows A/B, C/D, E/F, G,H at 2000× the final required concentrations were prepared in 96 well plates (Falcon, cat. no. 353077). Column 1, rows A-H were control DMSO. The 2000× solutions ranged from 2 mM to 1.024 nM (final assay concentration range 1 μM to […]). The 2000× solutions were added to cells in […], for a final DMSO concentration of 0.5% and final assay compound concentration of 1×. For the cells, C-terminal HiBiT-tagged Molt4 cells (ATCC CRL-1552, monoclonal cell line clone 1C10) were plated at 1×10^6 cells/mL, 100 μL/well ([…]) in complete RPMI (10% FBS, 1% L-glutamine). The cells were incubated with compound 10 and compound 17 for 4 hrs at […]/6% CO2.
Following incubation, 100 μL of complete Nano-Glo HiBiT Lytic Detection Reagent (Nano-Glo HiBiT Lytic Buffer with 1:50 Nano-Glo HiBiT Lytic Substrate and 1:100 LgBiT Protein; Promega cat. no. N3040) was added. Cells were further incubated for 10 min at room temperature (RT). Luminescence units (LU) were read on an EnVision plate reader (Perkin Elmer, 0.1 sec per well). Percent ITK remaining per sample was calculated as follows: […]
Using Graphpad Prism, % ITK remaining values were plotted as a function of compound concentration. To determine DC50 and Dmax values, resulting curves were fit to the Prism curve-fitting equation “log(inhibitor) vs response—Variable slope (four parameters)” (reported best fit value IC50 used as DC50). ITK was measured with antibody-based MSD (Meso-Scale Discovery) assays shown below.

SMILES	HiBiT DMax (%)	DC50 [nM]
CC1(C)CCc2c(-c3cc4ccc(C(=O)N5CCN(CC6CCN(c7ccc(C(=O)N[C@H]8CCC(=O)NC8=O)nc7)CC6)CC5)cc4[nH]3)n[nH]c2C1	59	8.8
C[C@@]12Cc3[nH]nc(C(=O)Nc4cnn(C5CCN(CC6CCN(c7ccc(C(=O)NC8CCC(=O)NC8=O)cc7)CC6)CC5)c4)c3C[C@@H]1C2(F)F (stereo partly shown)	81	4.9

Structures were worked out from names or drawings and are uncertain.
